Assay results published in the supplement of paper PMC5949888.
Most values lie at the floor of the assay. Slopes are relative: functional sequences can read slightly below zero.

System: Saccharomyces cerevisiae PS128 hsf1 delta, HSF1(1-493) fusion
Test: growth estimate (transactivation domain function in HSF1 fusion, heat-shock survival) (a.u. (slope of normalised read count over time)); higher = stronger growth at 37°C, i.e. more transactivation activity
Details: library: random library

Substance	growth estimate
GKYQRHRRR	< -0.25
HRIQRYVSTPQDFLQVGDMT	< -0.25
DWLTIWCARAETSVSRPDPW	< -0.25
ISSLQAPRFIIGAPDSGFAY	< -0.25
NEGRYRTRRHAP	< -0.25
SFSERLQWSLPVNSSVDGHY	< -0.25
GKGPVLMDVRKVLCLLSAVA	< -0.25
SCWLMCCSIRGGHAEHAKQQ	< -0.25
RNTRVLLAAWVPTTTPSQRG	< -0.25
HVPS	< -0.25
GVCCVRIIWDVWPLEQRRTP	< -0.25
GESGPADYCEVTVRWCVRIA	< -0.25
SYMQ	< -0.25
NKLQQKVNISSTPEVH	< -0.25
FMTVGVAAAFGERRRLDSEG	< -0.25
VVTCVNVATLRSP	< -0.25
GGDEAPKF	< -0.25
ESAI	-0.239
HSRI	< -0.25
SGYC	< -0.25
IEFLPWPKYLQVSIGPGA	< -0.25
IEGSKTRRRPVDKCRKGRDD	< -0.25
FTVSLTVLEGCVPVRLLIKP	< -0.25
LARTRAYGHLLRTVN	< -0.25
FRWACSLTSSRRART	< -0.25

Substance	growth estimate
VEKTLGHLMV	< -0.25
QIRASRVH	< -0.25
DILEG	< -0.25
VYQWSHYGVVSSVVVFGTSV	< -0.25
RIIASVRNCHLVAPYASNC	< -0.25
PNQVIESISALVNTKIKWSI	< -0.25
GQACRWRVHVALVYVALHTD	< -0.25
RVVGTGDAPVGRSHRAGECY	< -0.25
PSPL	< -0.25
RDQANPDLQGKLLS	< -0.25
RSCLAVTVCYSP	< -0.25
VVARRPFMTRLGVFNCERPR	0.525
CVLRV	-0.243
NCVGLPDGPDDLPGESGNPA	< -0.25
EVKTVDANRTRLRDNN	< -0.25
SQWASRVHVRYILERVSPLR	< -0.25
ISIPRSARQF	< -0.25
EGFTFQVHGESSPRVGVLCP	< -0.25
ARRSFMGCGSILRGSSQQPV	< -0.25
SAINVCWLCVSVKRPEALIR	< -0.25
SDGSSTISTWTGAPLGPTQG	< -0.25
FNPGPDPWRLSD	-0.245
TKPSPIKPGQGYRQWEVYTS	< -0.25
VMSILAGTRRSALRPSTLLS	< -0.25
ACGRVSLRLIQDMVLGTGQ	< -0.25

Substance	growth estimate
EGG	< -0.25
TKILA	< -0.25
GLVYAGRRGVGWAQRCTGEV	< -0.25
QRGAWA	< -0.25
RKLVFSAIELNPAVEKQA	< -0.25
RVNSIALLHKRVCTTCVYLS	< -0.25
GGCPGKASELQSEAAI	< -0.25
STSAVRSGMASWHSTRPNHV	< -0.25
GSHYFGYRWSLVHLSVTGLD	< -0.25
PIVRRAVYKRIMTWPSGRVG	< -0.25
LLQGGPHRLVAGKGSSSHSG	< -0.25
FPWDICDYSRYQDLDAPVRL	< -0.25
LGIDQMFRQS	< -0.25
PRGRR	< -0.25
ELRC	< -0.25
GRCGIGVWPWHALGPAYKPS	< -0.25
WVTSGAPRGGRNTGQSVPSS	< -0.25
TGWDGVGIGCLSAEPEWLKL	93.7
GSKAILAPVAKIKQIVRKHA	< -0.25
IGAPPGNRPRHPAATNMSVW	< -0.25
GQKAGQPQPKALVAGASSAR	< -0.25
RFLTTSITPDAHSSFLCDIA	< -0.25
IGVQAKVRGDLVW	< -0.25
FTYSFAVTNDKGSAHRL	< -0.25
IKRAEALVLAALTRWTLVWR	< -0.25

Substance	growth estimate
ENDQSL	< -0.25
LFYLYPHETGDPSVLSAHLW	< -0.25
LITADLALICVMCLLVGREG	< -0.25
AHVLFSAC	< -0.25
GDHRCSIHQTWSGSRHTHG	< -0.25
RGGCLRWSDHRHSYVKDFQR	< -0.25
HAVEAS	< -0.25
FPQGAKACKRWSWSLTAT	< -0.25
EVSTQDQ	< -0.25
GTLSSGYWCYRRGREAGFKA	< -0.25
GVLLYD	< -0.25
VRQRFMNHLNFKRPFDTVRV	< -0.25
SFTLCARPHGSEINPPTVRA	< -0.25
APRCRSSQTCRSDSERVGRC	< -0.25
AGLGTISDDRVHSDSDHLGL	< -0.25
QKRGSLKIKTNYSERSELES	< -0.25
RRSPGLVSRIGNATSGVVQR	< -0.25
LKGVKPAATMSGSLQL	< -0.25
LSASLRSLVYPPPIMCDVDP	< -0.25
RAI	< -0.25
TLKLPMLRLRHSLLSGLHPV	< -0.25
GCRLYICFTGQNCLETNVLL	< -0.25

Look-ups from the list:
In growth estimate, LKGVKPAATMSGSLQL reads < -0.25
In growth estimate, LSASLRSLVYPPPIMCDVDP reads < -0.25
In growth estimate, TLKLPMLRLRHSLLSGLHPV reads < -0.25
In growth estimate, VRQRFMNHLNFKRPFDTVRV reads < -0.25
In growth estimate, HAVEAS reads < -0.25
